These results are taken from publication doi:10.1101/2025.10.24.684405.

Amino acid sequences for entries named in this document (tags omitted). A change or cut given only in a name is not applied to a line headed by its entry.
UniProt Q2VPK5: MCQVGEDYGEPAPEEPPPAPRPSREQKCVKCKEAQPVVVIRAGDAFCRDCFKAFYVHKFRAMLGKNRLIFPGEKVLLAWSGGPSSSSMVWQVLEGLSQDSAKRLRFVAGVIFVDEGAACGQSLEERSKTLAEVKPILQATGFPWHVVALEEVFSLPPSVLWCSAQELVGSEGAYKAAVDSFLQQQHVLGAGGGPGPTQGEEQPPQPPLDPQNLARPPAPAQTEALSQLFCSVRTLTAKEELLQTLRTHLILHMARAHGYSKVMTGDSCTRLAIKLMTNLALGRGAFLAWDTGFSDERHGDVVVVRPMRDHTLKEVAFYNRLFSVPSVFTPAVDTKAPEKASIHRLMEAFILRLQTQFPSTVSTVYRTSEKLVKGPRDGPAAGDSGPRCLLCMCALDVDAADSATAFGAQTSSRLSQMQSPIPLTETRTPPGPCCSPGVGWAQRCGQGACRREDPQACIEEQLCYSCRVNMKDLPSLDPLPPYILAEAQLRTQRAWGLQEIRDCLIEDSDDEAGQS

No constants are given. Whether binding was seen depends on the method and setting. Binding can be weak; no strength is given. Tags and fused reporters may be left off the sequences shown.

This experiment deals with T1, human CTU1 (cytosolic thiouridylase 1), 6xHis and Twin-Strep tagged (human) (UniProt Q7Z7A3).
T1 sequence: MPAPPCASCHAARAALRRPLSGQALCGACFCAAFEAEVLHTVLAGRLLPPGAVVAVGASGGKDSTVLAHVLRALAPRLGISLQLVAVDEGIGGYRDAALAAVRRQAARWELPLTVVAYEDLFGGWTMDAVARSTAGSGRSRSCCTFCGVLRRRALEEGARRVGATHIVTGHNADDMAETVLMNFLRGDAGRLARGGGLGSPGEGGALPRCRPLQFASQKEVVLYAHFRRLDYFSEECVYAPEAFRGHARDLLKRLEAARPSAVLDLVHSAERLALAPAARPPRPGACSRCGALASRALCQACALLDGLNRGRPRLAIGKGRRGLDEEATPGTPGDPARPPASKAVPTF
Briefly: SEC. On the technique in general: Size exclusion chromatography separates by hydrodynamic size, large species first.

For the substance “human CTU2 K65A/R67A double mutant, 6xHis tagged (from UniProt Q2VPK5)”, the binding entry is given as “binds”.
